The results in this text go back to PMC3226435, “Slice orientation and muscarinic acetylcholine receptor activation determine the involvement of N-methyl D-aspartate receptor subunit GluN2B in hippocampal area CA1 long-term depression” (Molecular Brain, 2011).

The chains behind the UniProt entries cited, without tags or fusion partners. Residues count along the entry.
UniProt Q00960, residues 27-1482: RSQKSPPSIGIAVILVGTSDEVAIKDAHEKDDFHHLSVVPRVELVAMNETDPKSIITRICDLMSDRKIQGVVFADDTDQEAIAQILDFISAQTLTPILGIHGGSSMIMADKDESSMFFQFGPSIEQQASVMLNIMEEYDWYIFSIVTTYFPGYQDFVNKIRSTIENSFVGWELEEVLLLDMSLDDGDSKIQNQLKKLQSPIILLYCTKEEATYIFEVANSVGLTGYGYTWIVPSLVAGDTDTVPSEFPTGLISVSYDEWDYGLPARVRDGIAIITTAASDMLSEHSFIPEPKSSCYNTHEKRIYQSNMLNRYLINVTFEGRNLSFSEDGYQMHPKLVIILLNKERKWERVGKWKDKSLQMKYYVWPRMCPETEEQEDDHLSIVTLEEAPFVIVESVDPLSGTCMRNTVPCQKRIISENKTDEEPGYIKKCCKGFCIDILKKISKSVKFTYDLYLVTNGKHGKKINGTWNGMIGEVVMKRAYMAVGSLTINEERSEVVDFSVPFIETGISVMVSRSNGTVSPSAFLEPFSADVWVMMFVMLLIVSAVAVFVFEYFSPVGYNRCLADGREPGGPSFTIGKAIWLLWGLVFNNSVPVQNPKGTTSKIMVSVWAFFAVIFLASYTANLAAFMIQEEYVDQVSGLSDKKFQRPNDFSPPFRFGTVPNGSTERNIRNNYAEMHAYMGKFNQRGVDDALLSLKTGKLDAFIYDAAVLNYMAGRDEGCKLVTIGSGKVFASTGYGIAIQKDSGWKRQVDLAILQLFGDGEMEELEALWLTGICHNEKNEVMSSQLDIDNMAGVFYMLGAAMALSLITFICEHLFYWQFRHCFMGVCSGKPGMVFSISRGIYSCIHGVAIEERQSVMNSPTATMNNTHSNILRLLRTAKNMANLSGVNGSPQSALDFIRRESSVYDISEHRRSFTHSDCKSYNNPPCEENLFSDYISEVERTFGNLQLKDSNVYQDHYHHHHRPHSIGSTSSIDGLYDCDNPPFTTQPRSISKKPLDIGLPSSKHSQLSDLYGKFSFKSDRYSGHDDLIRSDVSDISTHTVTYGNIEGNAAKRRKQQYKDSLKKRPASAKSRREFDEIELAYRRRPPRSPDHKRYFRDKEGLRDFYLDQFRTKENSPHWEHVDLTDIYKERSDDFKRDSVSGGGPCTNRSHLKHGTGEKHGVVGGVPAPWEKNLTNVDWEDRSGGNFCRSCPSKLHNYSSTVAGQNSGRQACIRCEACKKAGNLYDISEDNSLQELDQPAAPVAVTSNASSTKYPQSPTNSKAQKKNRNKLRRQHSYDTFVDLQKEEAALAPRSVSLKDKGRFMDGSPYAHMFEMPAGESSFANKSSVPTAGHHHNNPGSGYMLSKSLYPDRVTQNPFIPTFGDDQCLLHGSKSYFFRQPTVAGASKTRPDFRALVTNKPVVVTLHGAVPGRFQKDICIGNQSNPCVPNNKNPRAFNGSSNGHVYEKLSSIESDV

Results are given in words; binding and its absence hold for the method and conditions named. Binding seen in cells or lysates may run through a third protein. Some binding calls cover weakened binding; strength is not graded here.

For this test, the target named is N-methyl D-aspartate receptor subunit GluN2B (rat (endogenous in hippocampal slices)) (UniProt Q00960). Put plainly: co-IP; GluN2B immunoprecipitated with rabbit polyclonal anti-GluN2B C-terminal antibody on protein A beads from 500 ug RIPA lysate of rat hippocampal slices (sagittal control or 20 uM scopolamine for 2 hrs; untreated coronal or sagittal), overnight at 4°C, four washes in RIPA; Western blot for RasGRF1, RasGRF1 normalized to GluN2B. A general note: In western blotting, separated proteins are transferred to a membrane and probed.

B1: Ras Guanine nucleotide Release Factor 1 (natural protein, rat (endogenous in hippocampal slices), UniProt P28818 1-1244, looked up)
chain: MQKAIRLNDGHVVSLGLLAQRDGTRKGYLSKRSSDNPKWQTKWFALLQNLLFYFESDSSSRPSGLYLLEGSICKRMPSPKRGTSSKESDKQHHYFTVNFSNDSQKSLELRTDDSKDCDEWVAAIARASYKILATEHEALMQKYLHLLQVVETEKTVAKQLRQQLEDGEVEIERLKAEIANLIKDNERIQSNQLVAPEDEDSDIKKIKKVQSFLRGWLCRRKWKNIIQDYIRSPHADSMRKRNQVVFSMLEAEAEYVQQLHILVNNFLRPLRMAASSKKPPITHDDVSSIFLNSETIMFLHQIFYQGLKARIASWPTLVLADLFDILLPMLNIYQEFVRNHQYSLQILAHCKQNRDFDKLLKQYEAKPDCEERTLETFLTYPMFQIPRYILTLHELLAHTPHEHVERNSLDYAKSKLEELSRVMHDEVSETENIRKNLAIERMITEGCEILLDTSQTFVRQGSLIQVPMSEKGKINKGRLGSLSLKKEGERQCFLFSKHLIICTRGSGSKLHLTKNGVISLIDCTLLDDPENMDDDGKGQEVDHLDFKIWVEPKDSPPFTVILVASSRQEKAAWTSDIIQCVDNIRCNGLMMNAFEENSKVTVPQMIKSDASLYCDDVDIRFSKTMNSCKVLQIRYASVERLLERLTDLRFLSIDFLNTFLHSYRVFTDAVVVLDKLISIYKKPITAIPARSLELLFSSSHNTKLLYGDAPKSPRASRKFSSPPPLAIGTSSPVRRRKLSLNIPIITGGKALELASLGCPSDGYTNIHSPISPFGKTTLDTSKLCVASSLTRTPEEIDMTTLEESSGFRKPTSDILKEESDDDQSDVDDTEVSPPTPKSFRNRITQEFPLFNYNSGIMMTCRDLMDSNRSPLSATSAFAIATAGANESPANKEIYRRMSLANTGYSSDQRNIDKEFVIRRAATNRVLNVLRHWVTKHSQDFETDDLLKYKVICFLEEVMHDPDLLPQERKAAANIMRTLTQEEITENHSMLDELLLMTEGVKTEPFENHSAMEIAEQLTLLDHLVFKSIPYEEFFGQGWMKADKNERTPYIMKTTRHFNHISNLIASEILRNEEVSARASTIEKWVAVADICRCLHNYNAVLEITSSINRSAIFRLKKTWLKVSKQTKSLFDKLQKLVSSDGRFKNLRETLRNCDPPCVPYLGMYLTDLAFLEEGTPNYTEDGLVNFSKMRMISHIIREIRQFQQTTYKIEPQPKVTQYLVDETFVLDDESLYEASLRIEPKLPT
notes: RasGRF1, Ras-specific guanine nucleotide exchange factor, endogenous in hippocampal slices of male Sprague-Dawley rats aged 14-21 days; Detected in the GluN2B immunoprecipitate by Western blot with a rabbit polyclonal anti-RasGRF1 antibody; also called RasGRF1; source: endogenous, lysate of rat hippocampal slices (RIPA buffer)
For the molecule B1, the binding result is “binds”.
